Measured values as given in PubChem BioAssay AID330 (DTP/NCI, 2004).
The list shows only some results of the screen, not a fair sample: it gathers tests that were run many times, whatever their T/C, doses with no T/C, and many T/C values between a quarter and a half above the control. Other doses and runs of a compound stand elsewhere. T/C gives the treated animals as a percentage of the vehicle group. Some entries give survivors of the animals treated and no T/C: the source files T/C as zero there, which appears to mark a toxic dose or a test without result, not a measured value. Some doses without a T/C left all or most animals alive at the check, yet need not have been tolerated: survival well below the control is almost never listed, so the zero probably covers shortened survival too. Survivors were counted at the toxicity check, usually on the fifth day, unless a day is given; later deaths do not show. Schedule codes are those of the source, read here as Q, the interval in days (D) or hours (H), X, the number of doses. Some doses were run more than once; the values are given in rising order. Where survival is the endpoint, this PubChem deposit counts one and a half times the control or more as active, and values a quarter to a half above the control carry no call in these data; other NCI protocols may use other cut-offs.

Test system: P388 leukemia ip, CD2F1 mice, survival T/C
Experiment: NCI In Vivo Anticancer Drug Screen. Data for tumor model P388 Leukemia (intraperitoneal) in CD2F1 (CDF1) mice
Conditions: T/C endpoint: median survival time, higher T/C = longer survival
[1] = dose: 100.0 mg/kg/injection, schedule: Q01DX005 (ip), vehicle: saline with Tween-80
[2] = dose: 200.0 mg/kg/injection, schedule: Q01DX005 (ip), vehicle: saline with Tween-80
[3] = dose: 200.0 mg/kg/injection, schedule: Q01DX009 (ip), vehicle: Klucel (hydroxypropylcellulose) (HPC)
[4] = dose: 200.0 mg/kg/injection, schedule: Q01DX009 (ip), vehicle: saline

`COc1cccc(/C=C2/SC(=S)N(Cc3ccco3)C2=O)c1OC` was tested, and the survivor count [1] was 5 of 5 and the survivor count [2] was 5 of 5.

In the case of `CCC[CH2][Sn]1([CH2]CCC)[O]OC(c2ccccc2)[O]1` (stereo not drawn), the T/C (dose: 0.75 mg/kg/injection, schedule: Q01DX009 (ip), vehicle: saline with Tween-80) is reported as 127 % of control, the T/C (dose: 1.32 mg/kg/injection, schedule: Q01DX009 (ip), vehicle: other) is reported as 127 % of control and the T/C (dose: 1.5 mg/kg/injection, schedule: Q01DX009 (ip), vehicle: saline with Tween-80) is reported as 127 % of control. For the same compound, the T/C (dose: 2.0 mg/kg/injection, schedule: Q01DX009 (ip), vehicle: other) was 127 % of control, the T/C (dose: 3.0 mg/kg/injection, schedule: Q01DX009 (ip), vehicle: other) was 140 % of control and the T/C (dose: 3.0 mg/kg/injection, schedule: Q01DX009 (ip), vehicle: saline with Tween-80) was 136 % of control. For the same compound, the survivor count (dose: 6.0 mg/kg/injection, schedule: Q01DX009 (ip), vehicle: saline with Tween-80) was 5 of 6, the survivor count (dose: 12.0 mg/kg/injection, schedule: Q01DX009 (ip), vehicle: saline with Tween-80) was 0 of 6 and the survivor count (dose: 24.0 mg/kg/injection, schedule: Q01DX009 (ip), vehicle: saline with Tween-80) was 0 of 6. The T/C (dose: 2500.0 micrograms/kg/injection, schedule: Q04DX003 (ip), vehicle: saline with Tween-80) was 135 % of control.

With `CC(C)=CCC(OC(=O)CC(C)C)C1=CC(=O)c2c(O)ccc(O)c2C1=O` (stereo not drawn) the survivor count (dose: 50.0 mg/kg/injection, schedule: Q01DX005 (ip), vehicle: saline with Tween-80) was 5 of 5, the survivor count [1] was 0 of 5 and the survivor count [2] was 0 of 5.

For `CCCCN=Cc1ccccc1O.CCCCN=Cc1ccccc1O.[Zn]`, the survivor count [3] was 0 of 6.

`COc1cc2c3c4c1OCc1c5c(cc(c1-4)CC3[N+](C)(C)CC2)OCO5` (stereo not drawn) was tested, and the survivor count (dose: 50.0 mg/kg/injection, schedule: Q01DX001 (ip), vehicle: saline) was 0 of 6, the survivor count (dose: 100.0 mg/kg/injection, schedule: Q01DX001 (ip), vehicle: saline) was 0 of 6 and the survivor count (dose: 200.0 mg/kg/injection, schedule: Q01DX001 (ip), vehicle: saline) was 0 of 6. The survivor count (dose: 400.0 mg/kg/injection, schedule: Q01DX001 (ip), vehicle: saline) was 0 of 6.

`CCCCCC(CN(C)C)C(/C=C/c1ccccc1Cl)=N\O` (stereo not drawn) was tested, and the survivor count [4] was 2 of 6.

For `CC(C)(C)SC(=O)CCl`, the survivor count (dose: 400.0 mg/kg/injection, schedule: Q04DX003 (ip), vehicle: saline with Tween-80) was 0 of 6.

For `CN1CCCC1=O`, the survivor count (dose: 100.0 mg/kg/injection, schedule: Q01DX009 (ip), vehicle: saline) was 6 of 6 and the survivor count [4] was 6 of 6.

In the case of `COc1cc2c(c(OC)c1OC)-c1ccc(N)c(=O)cc1[C@@H](NC(C)=O)CC2`, the T/C (dose: 2.0 mg/kg/injection, schedule: Q01DX010 (ip), vehicle: saline) is reported as 127 % of control, the T/C (dose: 3.12 mg/kg/injection, schedule: Q01DX009 (ip), vehicle: Klucel (hydroxypropylcellulose) (HPC)) is reported as 131 % of control and the survivor count (dose: 4.0 mg/kg/injection, schedule: Q01DX010 (ip), vehicle: saline) is reported as 7 of 7. For the same compound, the survivor count (dose: 6.25 mg/kg/injection, schedule: Q01DX009 (ip), vehicle: Klucel (hydroxypropylcellulose) (HPC)) was 6 of 6, the survivor count (dose: 12.5 mg/kg/injection, schedule: Q01DX009 (ip), vehicle: Klucel (hydroxypropylcellulose) (HPC)) was 3 of 6 and 6 of 6 and the survivor count (dose: 25.0 mg/kg/injection, schedule: Q01DX009 (ip), vehicle: Klucel (hydroxypropylcellulose) (HPC)) was 0 of 6 and 3 of 6. For the same compound, the survivor count (dose: 50.0 mg/kg/injection, schedule: Q01DX009 (ip), vehicle: Klucel (hydroxypropylcellulose) (HPC)) was 0 of 6 and 2 of 6.

`Cc1cccc(Nc2n[nH]c(N)n2)c1` was tested, and the survivor count [3] was 1 of 6.

`C[n+]1c(-c2ccc(/C=N/Nc3ccnc(N/N=C/c4ccc(-c5cn6ccccc6[n+]5C)cc4)n3)cc2)cn2ccccc21` was tested, and the T/C (dose: 15.0 mg/kg/injection, schedule: Q01DX005 (ip), vehicle: saline with Tween-80) was 131 % of control, the T/C (dose: 60.0 mg/kg/injection, schedule: Q01DX005 (ip), vehicle: saline with Tween-80) was 144 % of control and the survivor count (dose: 120.0 mg/kg/injection, schedule: Q01DX005 (ip), vehicle: saline with Tween-80) was 0 of 6. For the same compound, the survivor count (dose: 240.0 mg/kg/injection, schedule: Q01DX005 (ip), vehicle: saline with Tween-80) was 0 of 6.

With `COc1nc(=O)n(C2C=CC(=O)O2)cc1F` (stereo not drawn) the T/C (dose: 10.0 mg/kg/injection, schedule: Q01DX009 (ip), vehicle: saline) was 139 % of control and the T/C (dose: 60.0 mg/kg/injection, schedule: Q01DX009 (ip), vehicle: saline) was 125 % of control.
